From the supplement of paper PMC5407854, “Inhibitor of ppGalNAc-T3-mediated O-glycosylation blocks cancer cell invasiveness and lowers FGF23 levels” (eLife, 2017)
This is one part of the list. Small differences around the control level are noise.

Key:
[1] = system: ppGalNAc-T3 sensor; experiment: T3 sensor activation Q score (MG/GFP ratio z-score vs DMSO controls) (SD units); higher = more sensor activation (inhibition of ppGalNAc-T3 glycosylation); conditions: HEK293 sensor cells; 10 µM; 6 h
Procedure: (§1)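 Cells were treated with compound at 10 uM for 6 h, then MG/GFP ratio was read by flow cytometry (10,000 cells per well, duplicate wells). Q = (R - R_neg)/SD_neg relative to DMSO vehicle controls; the signal rises when the glycosyltransferase is inhibited.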

[2] = system: ppGalNAc-T2 sensor; experiment: T2 sensor activation Q score (MG/GFP ratio z-score vs DMSO controls) (SD units); higher = more sensor activation (inhibition of ppGalNAc-T2 glycosylation); conditions: HEK293 sensor cells; 10 µM; 6 h
Procedure: as §1

| SMILES | T3 sensor activation Q score [1] | T2 sensor activation Q score [2] |
| --- | --- | --- |
| CCN(C(=O)C(C)Oc1ccccc1)c1ccccc1C (configuration not stated) | -0.675 |  |
| COc1ccccc1C(=O)Nc1cccc(C)c1C | 0.945 |  |
| CC(NC(=O)c1ccccc1)C(=O)O (configuration not stated) | -0.265 |  |
| O=C(O)CNC(=O)c1ccccc1Cl | 0.11 |  |
| CC(=O)Nc1ccc(S(=O)(=O)N2CCCCC2)cc1 | 0.205 |  |
| c1ccc(CNc2ncnc3nc[nH]c23)cc1 | 0.8 |  |
| CC(=O)C1=C(O)C(=O)N(CCO)C1c1ccc(C)cc1 (configuration not stated) | 0.045 |  |
| COc1ccc(CN2CCCCCC2)cc1 | 0.415 |  |
| CCN(CC)S(=O)(=O)c1cc(C(=O)O)ccc1Cl | 0.785 | -0.975 |
| O=C(NC1CCCCCCC1)c1ccc(Br)o1 | 0.05 |  |
| O=S(=O)(Nc1ccc(F)cc1)c1ccc(F)cc1 | -0.245 |  |
| CCOc1ccc(CN2CCc3ccccc3C2)cc1 | 0.11 |  |
| NC(=O)C(=O)Nc1ccc(Cl)cc1 | 0.4 |  |
| CC(C(=O)NCC1(c2ccccc2)CCOCC1)N1CCCC1 (configuration not stated) | 0.215 |  |
| COc1ccc(N2C(=O)CC(N3CCN(C/C=C/c4ccccc4)CC3)C2=O)cc1 (configuration not stated) | 0.025 | 1.43 |
| O=C(NCc1ccco1)c1cccc(Cl)c1 | -0.36 |  |
| O=C(c1ccc(C(=O)N2CCCCCC2)cc1)N1CCCCCC1 | 1.4 |  |
| COc1ccc(NS(=O)(=O)c2cccc(N)c2)cc1 | 0.12 |  |
| Cc1ccc(C(C)C)c(OCC(=O)NN)c1 | 0.865 |  |
| CN1c2ccccc2N(C)C1c1ccc2c(c1)OCO2 | 1.05 |  |
| Nc1cc(NC(=O)C23CC4CC(CC(C4)C2)C3)cc(Oc2ccccc2)c1 | 0.275 |  |
| NNc1nc(Nc2ccccc2)nc(N2CCCCC2)n1 | 0.57 | -0.305 |
| NC(=O)c1c(NC(=O)C23CC4CC(CC(C4)C2)C3)sc2c1CCCC2 | -0.075 |  |
| C/C(=C\c1ccccc1)CN1CC(C)OC(C)C1 (configuration not stated) | 0.215 |  |

In another format: results already given
SMILES	T3 sensor activation Q score [1]	T2 sensor activation Q score [2]
CN1c2ccccc2N(C)C1c1ccc2c(c1)OCO2	1.05	
Nc1cc(NC(=O)C23CC4CC(CC(C4)C2)C3)cc(Oc2ccccc2)c1	0.275	

Next part:

| SMILES | T3 sensor activation Q score [1] | T2 sensor activation Q score [2] |
| --- | --- | --- |
| Cc1ccc2occ(CN3CCN(c4ccccc4F)CC3)c(=O)c2c1 | 0.15 |  |
| CSc1ccc(CN2CCCN(C)CC2)cc1 | 0.1 |  |
| CCOc1ccc(NC(=O)Nc2ccccc2)cc1 | -0.065 |  |
| CC1CCN(C2CCN(CCc3ccccc3)CC2)CC1 | 0.76 | -0.765 |
| CCSc1nnc(-c2ccccc2Cl)o1 | -0.055 |  |
| NC(=O)c1cc(N2C(=O)CCC2=O)ccc1N1CCOCC1 | 0.24 | 0.22 |
| OC(CN1CCOCC1)Cn1c2ccccc2c2ccccc21 (configuration not stated) | -0.485 |  |
| O=c1c2c(nc3n1CC(O)CS3)-c1ccccc1CC21CCCC1 (configuration not stated) | -0.22 |  |
| Oc1ccccc1-c1nc(-c2ccccc2)no1 | -0.01 |  |
| O=C(C1CCCCC1)N1CC(=O)N(CCc2ccccc2)C(=O)C1 | 1.15 | 0.275 |
| COc1ccc(OC)c(S(=O)(=O)c2ccc(C)c(C)c2)c1 | -0.075 | 0.17 |
| Cc1ccc(C)c(CN2CCN(c3ccccn3)CC2)c1 | -0.695 |  |
| CN(CCc1ccccc1)C1CCN(Cc2ccccc2)CC1 | 0.675 |  |
| CCN(CC)C(=O)C1CCCN(Cc2cccc(Cl)c2)C1 (configuration not stated) | 0.34 |  |
| COc1ccc(C(C)NC(=O)c2ccccc2)cc1OC (configuration not stated) | -0.5 |  |
| Cc1cccc(N2C(=O)CC(N3CCOCC3)C2=O)c1 (configuration not stated) | 0.85 |  |
| COc1ccccc1N1CCN(C(=O)c2cccc(C)c2)CC1 | 0.205 | -0.435 |
| O=C(O)C1CCCCN1Cc1ccccc1 (configuration not stated) | 0.435 | 0.33 |
| CC(C)Oc1ccccc1C1CC(=O)NC1=O (configuration not stated) | 0.65 | -1.67 |
| Cc1ccc(OCC(=O)Nc2ccccc2C(N)=O)cc1 | -0.35 | -0.11 |
| Cc1ccc2oc(-c3cccc(NC(=O)c4ccccc4)c3)nc2c1 | 0.495 | 1 |
| CC1C=CC(C)[C@H](C(=O)O)[C@H]1C(=O)O (some centres not stated) | 0.365 | -0.42 |
| CN1CCN(Cc2ccc3c(c2)Cc2ccccc2-3)CC1 | 2.48 | -0.845 |
| C=CCNC(=O)Cc1ccc([N+](=O)[O-])cc1 | -0.735 | 1.14 |

| SMILES | T3 sensor activation Q score [1] | T2 sensor activation Q score [2] |
| --- | --- | --- |
| CC(=O)N(C1=C(N(C)C)C(=O)c2ccccc2C1=O)c1cccc(Cl)c1 | -0.525 | 0.21 |
| Cc1ccc(NC(=O)CC(=O)NN)cc1 | 1.21 | 1.58 |
| CC1CCN(S(=O)(=O)c2cc(C(=O)O)ccc2Br)CC1 | 0.65 | -0.675 |
| CC(=O)NCC1OCCc2ccccc21 (configuration not stated) | 0.85 | -0.39 |
| Cc1ccc(NC(=O)Nc2ccccc2)c(Br)c1 | 0.17 | 1.25 |
| Cc1cc(C)cc(C(c2ccccc2)C2([N+](=O)[O-])C(=O)c3ccccc3C2=O)c1 (configuration not stated) | 0.45 | -0.85 |
| O=c1c(CN2CCN(c3ccccc3)CC2)coc2ccc(Cl)cc12 | 0.715 | 0.565 |
| Cc1cc(N2CCOCC2)nc(-c2ccccc2O)n1 | -0.06 | 2.66 |
| Cc1ccc2c(S(=O)(=O)O)ccc(O)c2n1 | 0.5 | -1.05 |
| CC(C)(C)c1cc(Br)cc(C=O)c1O | 0.03 | 0.275 |
| Cc1nc(N)nc(OCC(F)(F)C(F)F)c1Br | 0.03 | 1.14 |
| CN(C)CCN(C)Cc1cccc(Cl)c1Cl | 0.49 | 0.165 |
| CC(=O)c1cccc(NC(=O)C(Cc2ccccc2)N2C(=O)c3ccccc3C2=O)c1 (configuration not stated) | -0.025 | -0.485 |
| Cc1ccc(NC(=O)c2ccco2)cc1 | -0.275 | -1.3 |
| NCc1ccc(C(=O)NN)cc1 | 1.45 | 0.77 |
| OC(COc1ccc2c(c1)CCC2)CN1CCN(c2ccccc2)CC1 (configuration not stated) | 0.495 | -0.265 |
| Cc1ccc(CN2CCCN(C)CC2)c(C)c1 | -0.385 | 1.22 |
| CN(Cc1ccccc1)C(=O)c1ccc(Br)cc1 | 0.435 | -0.275 |
| COc1ccc(NCc2cccnc2)cc1 | 0.445 | -0.985 |
| Cc1ccc(S(=O)(=O)NC(C)C)cc1[N+](=O)[O-] | -0.59 | -1.17 |
| O=C1CC(Nc2ccc(Br)cc2)C(=O)N1c1cccc(Cl)c1 (configuration not stated) | 0.92 | 1 |
| CCCNC(=O)NC(C)C12CC3CC(CC(C3)C1)C2 (configuration not stated) | 0.7 | 0.06 |
| NC(=O)c1ccc(-n2nnnc2SCc2ccc(Cl)cc2)cc1 | -0.65 | -1.02 |
| COc1ccc(C(=O)N2CCCCCC2)cc1OC | 0.275 | -0.9 |

| SMILES | T3 sensor activation Q score [1] | T2 sensor activation Q score [2] |
| --- | --- | --- |
| O=C1CC(Nc2ccccc2)C(=O)N1c1cccc(Cl)c1 (configuration not stated) | -0.02 | -0.585 |
| NC(CC(O)c1ccc([N+](=O)[O-])cc1)C(Cl)(Cl)Cl (configuration not stated) | -0.405 | 1.06 |
| Nc1nc2nc(-c3ccccc3)cc(-c3ccccc3)n2n1 | 2.15 | -0.15 |
| COc1ccc(CN2CCCCCC2)c(C)c1C | 0.26 | -0.04 |
| COc1cc2c(cc1OC)CN(Cc1ccccc1F)CC2 | 0.43 | -0.015 |
| CC(=O)c1cccc(Nc2nc(-c3ccc(Cl)cc3)cs2)c1 | -0.685 | -0.67 |
| O=S(=O)(Nc1nc2ccccc2s1)c1ccccc1 | 1.06 | 0.065 |
| CCOc1cc(CN2CCN(c3ccccc3OC)CC2)ccc1OC | 0.52 | -0.655 |
| CC(=O)c1cccc(NC(=O)COc2ccc(Cl)cc2)c1 | 0.58 | -1.13 |
| O=C([C@@H]1C[C@@H]1c1ccccc1)N1CCOCC1 | 1.4 | 0.085 |
| CC(=O)Nc1ccc(NC2=CC(=O)CC(C)(C)C2)cc1 | -0.39 | -0.635 |
| Cc1ccc(C(=O)Nc2ccc(C(=O)O)cc2)cc1C | -0.35 | -0.01 |
| COc1cc(OC)c(OC)cc1CN1CCN(c2cccc(Cl)c2)CC1 | 0.355 | -0.065 |
| O=C(NN1C(=O)c2ccccc2C1=O)c1cccc(Cl)c1 | 0.57 | -0.575 |
| CCc1c(C)nc(N)nc1N1CCOCC1 | -0.13 | -0.265 |
| c1ccc(CN2CCC(NC3C4CC5CC(C4)CC3C5)CC2)cc1 (configuration not stated) | 1.29 | -0.805 |
| CC(C)CC1CC2C(O1)c1ccccc1OC2(C)C (configuration not stated) | 0.29 | 0.005 |
| CCCOC(=O)Nc1nnc(CCC)s1 | -0.345 | -1.1 |
| Cc1ccc(C(=O)O)cc1S(=O)(=O)N1CCOCC1 | 0.205 | 0.26 |
| O=S(=O)(c1ccc(Cl)cc1)N1CCOCC1 | 0.9 | -0.58 |
| Cc1ccc(S(=O)(=O)N(C)C)cc1N | -0.265 | 0.08 |
| CCC(=O)Nc1nc2ccccc2n1CCN1CCOCC1 | -0.04 | 0.755 |
| COc1ccc(CN2CCCCCC2)cc1OC | -0.265 | 0.055 |
| Cc1cccc(N2C(=O)CC(N3CCCCC3)C2=O)c1 (configuration not stated) | 1.3 | -0.47 |

By substructure, the compounds so far containing an aryl methoxy group (14)

| SMILES | T3 sensor activation Q score [1] | T2 sensor activation Q score [2] |
| --- | --- | --- |
| COc1ccccc1C(=O)Nc1cccc(C)c1C | 0.945 |  |
| COc1ccc(CN2CCCCCC2)cc1 | 0.415 |  |
| COc1ccc(N2C(=O)CC(N3CCN(C/C=C/c4ccccc4)CC3)C2=O)cc1 (configuration not stated) | 0.025 | 1.43 |
| COc1ccc(NS(=O)(=O)c2cccc(N)c2)cc1 | 0.12 |  |
| COc1ccc(OC)c(S(=O)(=O)c2ccc(C)c(C)c2)c1 | -0.075 | 0.17 |
| COc1ccc(C(C)NC(=O)c2ccccc2)cc1OC (configuration not stated) | -0.5 |  |
| COc1ccccc1N1CCN(C(=O)c2cccc(C)c2)CC1 | 0.205 | -0.435 |
| COc1ccc(NCc2cccnc2)cc1 | 0.445 | -0.985 |
| COc1ccc(C(=O)N2CCCCCC2)cc1OC | 0.275 | -0.9 |
| COc1ccc(CN2CCCCCC2)c(C)c1C | 0.26 | -0.04 |
| COc1cc2c(cc1OC)CN(Cc1ccccc1F)CC2 | 0.43 | -0.015 |
| CCOc1cc(CN2CCN(c3ccccc3OC)CC2)ccc1OC | 0.52 | -0.655 |
| COc1cc(OC)c(OC)cc1CN1CCN(c2cccc(Cl)c2)CC1 | 0.355 | -0.065 |
| COc1ccc(CN2CCCCCC2)cc1OC | -0.265 | 0.055 |

Following part:

| SMILES | T3 sensor activation Q score [1] | T2 sensor activation Q score [2] |
| --- | --- | --- |
| Cc1ccsc1CN1CCN(c2ccc([N+](=O)[O-])cc2)CC1 | 0.05 | 0.6 |
| Cc1cc(C)[n+]2nc([S-])sc2n1 | 0.6 | 0.035 |
| Cc1cccc(NC(=O)CCCC(=O)O)c1 | -0.265 | -0.7 |
| CN1CCN(C2CC(=O)N(c3ccccc3F)C2=O)CC1 (configuration not stated) | 0.04 | 0.565 |
| C(#Cc1ccccc1)CN1CCN(CC#Cc2ccccc2)CC1 | -0.415 | 0.01 |
| NC(=O)CC1NC(=O)c2ccccc21 (configuration not stated) | -0.13 | 1.03 |
| Cc1c(Cl)cccc1NC(=O)[C@@H]1C[C@@H]1c1ccccc1 | -0.55 | 1.26 |
| CCN(CC)C(=O)C1CCCN(Cc2ccc(F)cc2F)C1 (configuration not stated) | 0.15 | -0.18 |
| Brc1cnc2nc(COc3ccccc3)[nH]c2c1 | 1.6 | 2.85 |
| Cc1ccc2[nH]c(C)c(CCC(=O)NC3CCCCC3)c2c1 | 0.6 | -0.365 |
| Cc1ccc(NC(=O)c2ccc([N+](=O)[O-])o2)cc1 | -0.075 | -0.64 |
| Cc1cc(NN)nc(-c2ccccc2O)n1 | -0.72 | 1.58 |
| CCN(CC)S(=O)(=O)c1ccc(Oc2ccc([N+](=O)[O-])cc2)cc1 | 0.12 | 0.83 |
| O=C(O)CCNC(=O)c1ccccc1 | -0.06 | 0.435 |
| Cc1ccc(NC(=O)C23CC4CC(CC(C4)C2)C3)cc1[N+](=O)[O-] | -0.51 | -0.87 |
| Cc1cc(C)n(-c2nc3ccccc3s2)n1 | -0.135 | -0.42 |
| CC(CCc1ccccc1)N1CCN(c2ccccc2F)CC1 (configuration not stated) | 0.31 | 0.02 |
| Fc1ccc(CN2CCN(Cc3ccc4c(c3)OCO4)CC2)cc1F | 0.095 | -0.75 |
| NNC(=O)c1n[nH]c2c1CCC2 | 0.925 | 2.38 |
| COc1cc2c(cc1OC)CN(Cc1ccc(Cl)cc1)CC2 | -0.58 | 0.24 |
| Cc1ccc(S(=O)(=O)NC(C)(C)C)cc1[N+](=O)[O-] | -1 | -1.2 |
| O=C(COc1ccccc1)N1c2ccccc2Sc2ccccc21 | -0.545 | -0.62 |
| Cc1ccc(C(=O)CC(=O)c2cccc(F)c2)c(O)c1 | -0.425 | 1.23 |
| CC(=Nc1ccccc1)C1=C(O)CC(C)(C)CC1=O | -0.395 | 0.35 |
